The experiment concerns the target T1, sterol regulatory element-binding protein cleavage-activating protein (SCAP) (human (endogenous in esophageal cancer cells)) (UniProt Q12770).
T1 sequence: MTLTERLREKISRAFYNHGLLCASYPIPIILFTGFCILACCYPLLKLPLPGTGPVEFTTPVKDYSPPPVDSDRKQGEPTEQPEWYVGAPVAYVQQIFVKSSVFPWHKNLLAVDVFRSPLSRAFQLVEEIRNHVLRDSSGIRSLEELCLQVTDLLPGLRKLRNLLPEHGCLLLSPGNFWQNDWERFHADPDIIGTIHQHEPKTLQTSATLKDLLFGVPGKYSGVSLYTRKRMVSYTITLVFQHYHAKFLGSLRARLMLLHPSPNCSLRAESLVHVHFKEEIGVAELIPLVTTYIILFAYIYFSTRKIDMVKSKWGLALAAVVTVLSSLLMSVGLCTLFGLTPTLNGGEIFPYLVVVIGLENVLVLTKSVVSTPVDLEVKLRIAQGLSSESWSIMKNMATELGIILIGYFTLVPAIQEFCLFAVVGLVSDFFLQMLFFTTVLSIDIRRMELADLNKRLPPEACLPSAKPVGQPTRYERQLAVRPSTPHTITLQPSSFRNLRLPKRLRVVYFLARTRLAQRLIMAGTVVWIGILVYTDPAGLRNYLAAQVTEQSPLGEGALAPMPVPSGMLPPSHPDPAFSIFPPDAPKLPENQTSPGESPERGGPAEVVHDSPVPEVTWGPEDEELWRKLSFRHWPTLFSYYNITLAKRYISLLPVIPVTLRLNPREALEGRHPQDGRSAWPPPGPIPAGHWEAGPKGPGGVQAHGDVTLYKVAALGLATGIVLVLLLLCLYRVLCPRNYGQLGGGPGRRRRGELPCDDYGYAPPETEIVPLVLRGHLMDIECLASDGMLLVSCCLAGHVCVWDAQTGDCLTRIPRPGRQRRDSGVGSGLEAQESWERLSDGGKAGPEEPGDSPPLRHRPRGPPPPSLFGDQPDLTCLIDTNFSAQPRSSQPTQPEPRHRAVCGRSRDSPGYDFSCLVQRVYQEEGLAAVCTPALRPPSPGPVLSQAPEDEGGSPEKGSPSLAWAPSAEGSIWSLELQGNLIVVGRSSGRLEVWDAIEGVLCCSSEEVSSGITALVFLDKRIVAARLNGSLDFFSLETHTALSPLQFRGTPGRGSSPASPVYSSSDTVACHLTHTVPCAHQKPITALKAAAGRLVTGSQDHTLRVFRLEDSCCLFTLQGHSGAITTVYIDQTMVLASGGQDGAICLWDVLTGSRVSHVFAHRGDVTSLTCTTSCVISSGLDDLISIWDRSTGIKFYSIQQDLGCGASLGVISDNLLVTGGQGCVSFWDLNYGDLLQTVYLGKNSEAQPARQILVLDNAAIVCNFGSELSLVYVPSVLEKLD
Put plainly: co-IP; cell lysates incubated with antibodies against GDF15 or SCAP at 4°C overnight, then Protein A/G PLUS-Agarose beads for 10 h; 4 washes with lysis buffer; western blot. Background: In western blotting, separated proteins are transferred to a membrane and probed.

The chains behind the UniProt entries cited, without tags or fusion partners. Where a name states a change or a piece, a line headed by the entry shows the natural chain unless it says otherwise.
UniProt Q99988: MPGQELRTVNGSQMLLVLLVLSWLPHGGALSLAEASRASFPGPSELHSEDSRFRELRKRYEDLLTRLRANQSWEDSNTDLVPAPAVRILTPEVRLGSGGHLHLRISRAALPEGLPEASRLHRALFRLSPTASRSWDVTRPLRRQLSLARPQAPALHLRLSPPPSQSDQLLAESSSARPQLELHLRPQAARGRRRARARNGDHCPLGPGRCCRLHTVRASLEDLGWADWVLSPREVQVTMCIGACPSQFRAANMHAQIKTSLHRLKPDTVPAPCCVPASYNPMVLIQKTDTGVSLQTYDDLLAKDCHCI

Results are given in words; binding and its absence hold for the method and conditions named. Binding seen in cells or lysates may run through a third protein. A result given as binding can be weak or reduced; the word gives no strength.

In the case of “Growth differentiation factor 15 (GDF15) (from UniProt Q99988)”, the binding entry was “binds”.

Source of the values: paper PMC7573169.
